Measured values as given in patent publication US20100015126A1, “Methods of Binding of Cross-Beta Structures By Chaperones” (priority 2006, published 2010).

Test: Limulus Amebocyte Lysate (LAL) endotoxin assay
Details: for Endotoxin level (EU): stock solutions

HbAGE: human haemoglobin glycated with glucose-6-phosphate for 75 weeks
Estimated LPS content (estimated with LPS standard curve): <0.25 ng/mL
Endotoxin level (EU): 0.122 EU

tPA: tissue-type plasminogen activator (Actilyse, Boehringer-Ingelheim)
Endotoxin level (EU): 2.7 EU
